From paper PMC8997538

By UniProt entry, the sequences of proteins in these tests, tags left out.
UniProt Q8VCF0: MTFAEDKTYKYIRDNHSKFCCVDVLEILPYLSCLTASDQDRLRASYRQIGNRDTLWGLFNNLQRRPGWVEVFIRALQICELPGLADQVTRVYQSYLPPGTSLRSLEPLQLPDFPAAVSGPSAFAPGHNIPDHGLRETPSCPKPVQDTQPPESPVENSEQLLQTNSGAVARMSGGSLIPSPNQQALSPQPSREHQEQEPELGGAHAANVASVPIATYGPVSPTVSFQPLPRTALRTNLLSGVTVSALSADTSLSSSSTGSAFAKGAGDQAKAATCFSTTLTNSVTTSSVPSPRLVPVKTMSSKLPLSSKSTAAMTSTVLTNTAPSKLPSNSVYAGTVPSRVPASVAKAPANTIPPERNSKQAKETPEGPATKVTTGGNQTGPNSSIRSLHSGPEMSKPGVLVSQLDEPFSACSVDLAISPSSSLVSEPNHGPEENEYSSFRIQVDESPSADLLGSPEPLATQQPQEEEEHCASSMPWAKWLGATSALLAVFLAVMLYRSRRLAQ

T1: 3×Myc-CARD19-WT (mouse) (UniProt Q9D1I2)
T1 sequence: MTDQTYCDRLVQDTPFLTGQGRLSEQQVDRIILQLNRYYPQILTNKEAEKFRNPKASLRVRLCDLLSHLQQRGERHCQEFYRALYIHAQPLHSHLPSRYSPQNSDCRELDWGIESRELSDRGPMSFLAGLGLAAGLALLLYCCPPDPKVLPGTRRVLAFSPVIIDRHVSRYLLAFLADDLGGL

T2: 3×Myc-CARD19-G73R (mouse) (UniProt Q9D1I2)
T2 sequence: T1 sequence with G73R

T3: 3×Myc-CARD19-Δ146 (mouse) (UniProt Q9D1I2)
T3 sequence: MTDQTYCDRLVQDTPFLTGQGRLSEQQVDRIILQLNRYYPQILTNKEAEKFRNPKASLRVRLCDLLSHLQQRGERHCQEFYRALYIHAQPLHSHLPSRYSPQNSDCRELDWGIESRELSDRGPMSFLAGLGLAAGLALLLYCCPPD

B1: MIC25 (protein, UniProt Q91VN4 1-273)
chain: MGSAESAEARRVSFEMDEEERVRVLQGIRLSESVVNRMKDCSQPSAGEQLVPGFGPSSSAPVPTVPLPAISVPTVPAPTTPVPTAPSSSVRGLPGGTCKGPLTDVKVPSAESGGGLQSSAVKEDLKKFQQEQLAVQDEMVRVAKKEKEAAEKHLKASLPKKKASLTHEQQQSARLARELEDREAELSRRDTFYKEQQGRIQEKNAELYKLSSQQFHEAASKAESTIKPRRVEPVCSGLQAQILRCYRDHLHEVLLCSDLVKAYQHCVSTARKG
B2: DNAJC11 (protein, UniProt Q5U458 1-559)
chain: MATALSEEELDNEDYYSLLNVRREASSEELKAAYRRLCMLYHPDKHRDPELKSQAERLFNLVHQAYEVLSDPQTRAIYDIYGKRGLEMEGWEVVERKRTPAEIREEFERLQREREERRLQQRTNPKGTISVGVDATDLFDRYDEEYEDVSGSGFPQIEINKMHISQSIEAPLTATDTAILSGSLSTQNGNGGGSVNFALRRVTSAKGWGELEFGAGDLQGPLFGLKLFRNLTPRCFVTTNCALQFSSRGIRPGLTTVLARNLDKNTVGYLQWRWGIQSAMNTSIVRDTKTCHFTVALQLGIPHSFALISYQHKFQDDDQTRVKGSLKAGFFGTIVEYGAERKISRHSVLGAAVSIGVPQGVSLKVKLNRASQTYFFPIHLTDQLLPSAVFYATVGPLVVYLAVHRLIIRPYLRAQKEKELEKQRENTASDILQKKQEAEAAVRLMQESVRRIIEAEESRMGLIIVNAWYGKFVNDKSRKNEKVKVIDVTVPLQCLVKDSKLILTEASKAGLPGFYDPCVGEEKSLRVLYQFRGVLHQVMVPDSEALRIPKQSHRIDTDG
B3: MIC19 (protein, UniProt Q9CRB9 1-227)
chain: MGGTASTRRVTFEADENENITVVKGIRLSENVIDRMKESSPSGSKSQRYSSVYGASVSDEDLKRRVAEELALEQAKKESEHQRRLKQARDLERERAAANEQLTRAVLRERISSEEERMKAKHLARQLEEKDRVMRKQDAFYKEQLARLEERSSEFYKVTTEEYQKAAEEVEAKFKRYEYHPVCADLQTKILQCYRQNTQQTLSCSALASQYMHCVNHAKQSMLEKGG
B4: SAMM50 (protein, UniProt Q8BGH2 1-469)
chain: MGTVHARSLEPLPSSGTDFGALGEEAEFVEVEPEAKQEILENKDVVVQHVHFDGLGRTKDDIIICEIGEVFKAKNLIEVMRRSHEAREKLLRLGIFRQVDVLIDTCHGEDALPNGLDVTFEVTELRRLTGSYNTMVGNNEGSMVLGLKLPNLLGRAEKVTFQFSYGTKETSYGLSFFKPQPGNFERNFSVNLYKVTGQFPWSSLRETDRGVSAEYSFPLWKTSHTVKWEGVWRELGCLSRTASFAVRKESGHSLKSSLSHAMVIDSRNSSILPRRGALFKVNQELAGYTGGDVSFIKEDFELQLNKPLALDSVFSTSLWGGMLVPIGDKPSSIADRFYLGGPTSVRGFSMHSIGPQSEGDYLGGEAYWAGGLHLYTPLPFRPGQGGFGELFRTHFFLNAGNLCNLNYGEGPKAHIRKLAECIRWSYGAGVVLRLGNIARLELNYCIPMGVQGGDRICDGVQFGAGIRFL

Tests used:
Test in all cases: affinity purification with mass spectrometry; lysates of Card19−/− immortalized macrophages expressing 3×Myc-CARD19 (WT; repeated with WT, G73R, Δ146, ΔTM), Myc-Trap agarose beads or negative control agarose beads; 50 mM Tris-HCl pH 7.5, 150 mM NaCl, 1% Triton X-100; gel slices analysed by mass spectrometry
[1] = target: T1, 3×Myc-CARD19-WT (mouse)
[2] = target: T2, 3×Myc-CARD19-G73R (mouse)
[3] = target: T1, 3×Myc-CARD19-WT (mouse); remark: listed apart in the source
[4] = target: T3, 3×Myc-CARD19-Δ146 (mouse)
[5] = target: 3×Myc-CARD19-ΔTM (mouse) (UniProt Q9D1I2)

Molecule | binding [1] | binding [2] | binding [3] | binding [4] | binding [5]
mitochondrial antiviral signaling protein (MAVS) (from UniProt Q8VCF0 1-503) | no binding |  |  |  | 
B1 |  | binds | binds | binds weakly | binds weakly
B2 |  |  | no binding |  | 
B3 |  | binds | binds |  | binds weakly
B4 |  | binds | binds |  | binds weakly

Where a chain is given by its changes, count along the chain named. Where two headings read alike, the source gives them in different places. No constants are given. Whether binding was seen depends on the method and setting. In cells and extracts the contact can be indirect. Here binding means that the protein was enriched with, or labelled near, the bait; the list need not be complete. For part of these data: A no says only that the protein was not detected with the bait. For part of these data: Sequences can lack the tags named with a protein.
